Reference: article doi:10.1101/2024.10.21.619442
No constants are given. Whether binding was seen depends on the method and setting. In cells and extracts the contact can be indirect. A result given as binding can be weak or reduced; the word gives no strength.

Protein sequences, listed by entry. Tags and fused reporters are not part of them.
UniProt P35222: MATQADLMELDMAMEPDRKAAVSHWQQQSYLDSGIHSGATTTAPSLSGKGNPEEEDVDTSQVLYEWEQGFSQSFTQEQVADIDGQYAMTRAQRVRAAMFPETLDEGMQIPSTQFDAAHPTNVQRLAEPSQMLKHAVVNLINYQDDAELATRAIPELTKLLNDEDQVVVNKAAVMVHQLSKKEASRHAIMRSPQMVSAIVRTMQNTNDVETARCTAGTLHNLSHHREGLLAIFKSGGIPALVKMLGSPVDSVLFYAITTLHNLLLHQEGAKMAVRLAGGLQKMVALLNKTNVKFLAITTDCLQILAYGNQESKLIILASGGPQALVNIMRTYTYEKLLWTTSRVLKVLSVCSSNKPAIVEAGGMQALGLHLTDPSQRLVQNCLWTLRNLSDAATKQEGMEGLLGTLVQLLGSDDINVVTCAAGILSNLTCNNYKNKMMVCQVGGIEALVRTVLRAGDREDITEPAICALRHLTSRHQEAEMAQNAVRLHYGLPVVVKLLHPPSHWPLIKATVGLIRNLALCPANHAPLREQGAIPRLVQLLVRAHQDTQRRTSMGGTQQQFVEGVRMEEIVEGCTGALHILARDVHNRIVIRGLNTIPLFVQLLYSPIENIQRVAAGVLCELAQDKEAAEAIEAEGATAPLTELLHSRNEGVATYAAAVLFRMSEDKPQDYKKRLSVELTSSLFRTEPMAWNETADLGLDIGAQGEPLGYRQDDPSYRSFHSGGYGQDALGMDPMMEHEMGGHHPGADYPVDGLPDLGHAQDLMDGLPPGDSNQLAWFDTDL

Legend:
[1] = biological target: endogenous β-catenin (human (endogenous in HEK293T)) (UniProt P35222); test: co-IP
[2] = biological target: V5-tagged FBXW11^WT (human) (UniProt E5RGC1); test: co-IP

Row | binding [1] | binding [2] | Substance
1 | binds | – | V5-tagged FBXW11^WT (from UniProt E5RGC1)
2 | – | binds | Flag-tagged β-catenin (from UniProt P35222 1-781)
